Laboratory results published in paper PMC7819943, “Rice protein-binding microarrays: a tool to detect cis-acting elements near promoter regions in rice”.
Some of the results follow.

Amino acid sequences for entries named in this document (tags omitted).
UniProt Q0JBA9, entry or part of it: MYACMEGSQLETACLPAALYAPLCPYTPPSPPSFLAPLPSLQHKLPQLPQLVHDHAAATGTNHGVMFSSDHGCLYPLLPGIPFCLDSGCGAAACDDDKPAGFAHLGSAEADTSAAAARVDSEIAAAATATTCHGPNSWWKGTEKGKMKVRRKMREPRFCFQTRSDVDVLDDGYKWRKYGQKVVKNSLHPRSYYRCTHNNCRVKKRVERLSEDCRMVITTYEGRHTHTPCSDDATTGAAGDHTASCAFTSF

Biological target: OsWRKY34 (Oryza sativa, UniProt Q0JBA9 1-250)
Assay: protein-binding microarray (RPBM); PBS, 2% BSA, 51.3 ng/ul salmon testes DNA, 50 uM zinc acetate, 200 nM TF, 25 C, 1 h; high values mean tight binding
Conditions: protein: recombinant; tags: N-terminal polyhistidine and DsRed monomer fusion (pET32a); label: CyDye5-dUTP incorporated in the synthesized complementary strand; 3' TTTTT single-stranded linker to array surface; dsDNA, one strand shown
How it was run: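 Binding signal is reported as fluorescence intensity per feature (arbitrary units) from an Axon 4000B scanner. Incubation used 200 nM of each Ni–NTA-purified, N-terminally polyhistidine- and DsRed-fused transcription factor from E. coli BL21-CodonPlus on a double-stranded custom Agilent array for 1 h at 25 °C, with 50 µM zinc acetate in the buffer, followed by washing.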

Sequence	binding signal
ATGCTTGCTTGCCTGCCTTATCTGCGTCTTGAATTGCATCCGGAGTCACCTAGTGCAG	10100 fluorescence intensity (a.u.)
GCATTGGTCATGTCATGTGGGCCACTTAAACGTGTGATTACGGAGTCACCTAGTGCAG	8260 fluorescence intensity (a.u.)
ACCTACTCTCTCTCTCTGTCTCTCGCTCTCGCCGTCGCCGCGGAGTCACCTAGTGCAG	10900 fluorescence intensity (a.u.)
CGATCATCTCCTCAAGCCATAGCAATGCATCATATGTTCTCGGAGTCACCTAGTGCAG	9520 fluorescence intensity (a.u.)
GTACTAGCTAGCTACCACTCTATCTTCTTCTTCTTCTACCCGGAGTCACCTAGTGCAG	8290 fluorescence intensity (a.u.)
CAATCCAATCCGGGCCCACCTGTCATACAAATATCCACGACGGAGTCACCTAGTGCAG	8070 fluorescence intensity (a.u.)
GAACATCCATGTGTATTTCCATTTCGTTTATACTATATGCCGGAGTCACCTAGTGCAG	9200 fluorescence intensity (a.u.)
TTCACTTGGATCTTGTTGATGGTTTTTTTTTAGAATTACACGGAGTCACCTAGTGCAG	10300 fluorescence intensity (a.u.)
GGAATAAGTTCACTTTAGGTCTCTCTATTTGTTGACCAGTCGGAGTCACCTAGTGCAG	9670 fluorescence intensity (a.u.)
ATCCTTAATTAGTACGGAGTATGTTCTTATTATTCTAATTCGGAGTCACCTAGTGCAG	8040 fluorescence intensity (a.u.)
ATAACCGTGAGGATAAATTCACCGCTTCGATCTCTCCCATCGGAGTCACCTAGTGCAG	8510 fluorescence intensity (a.u.)
GTTGAGTGTTGAGCTCGGTCGTCCTGTTCTTGACTTCTCGCGGAGTCACCTAGTGCAG	10600 fluorescence intensity (a.u.)
GCTCCTCTCTCTCTCACCTTCTTGTTGGCCCCACGTGTCACGGAGTCACCTAGTGCAG	8390 fluorescence intensity (a.u.)
AGTTGTATCTACCCTCTAATCTTGCGAAGAATAGTCTACACGGAGTCACCTAGTGCAG	8180 fluorescence intensity (a.u.)
GGACCCAACGTTGTGTTTTGCTCGTTTGATGATCTTCTATCGGAGTCACCTAGTGCAG	8430 fluorescence intensity (a.u.)
TGGAGCACATCTTTTCGTATTTTCATGGATGTCGCATCTACGGAGTCACCTAGTGCAG	8930 fluorescence intensity (a.u.)
GACGAATGGTCAAACGTTGGATAAAAAGTCAACAGCGTCACGGAGTCACCTAGTGCAG	10200 fluorescence intensity (a.u.)
TAAGGTGTGTTTAGTTCTTTGGGTGTAAAGTTTTTGAAGTCGGAGTCACCTAGTGCAG	10600 fluorescence intensity (a.u.)
CCATTAGGGTCCAGCTTATTGACCGTTTCGCACCATACACCGGAGTCACCTAGTGCAG	11100 fluorescence intensity (a.u.)
TCGGCGATCCTTCGATATCACTAATCTAGCATTCCACCAACGGAGTCACCTAGTGCAG	8170 fluorescence intensity (a.u.)
TCTCTTGGTTTCTCTCTCTAGCCATCGGCTGCCTCTCTCTCGGAGTCACCTAGTGCAG	8330 fluorescence intensity (a.u.)

Sequence	binding signal
TGGGCAGGGGCACTCGCGCCGTCGGTTGGGGAAGAGAGGGCGGAGTCACCTAGTGCAG	9260 fluorescence intensity (a.u.)
TTCCCCACCTCTACGCGCCTCCGCCTCCGCCTCCGCCATGCGGAGTCACCTAGTGCAG	10300 fluorescence intensity (a.u.)
CACATAAGCTAGCTTTGCAGCCACAGTCATCTCCATCGGACGGAGTCACCTAGTGCAG	8070 fluorescence intensity (a.u.)
ACCGTCCCACCTCAAGGCCGGCACCCTGTCACTCCACCTCCGGAGTCACCTAGTGCAG	9050 fluorescence intensity (a.u.)
TCACATCACATGATAGTCATACTGTTTGCCCCAATAGACACGGAGTCACCTAGTGCAG	9080 fluorescence intensity (a.u.)
AAAAATTATTTTTCTCACATTATGCAGTCGTTTCATTTCTCGGAGTCACCTAGTGCAG	9210 fluorescence intensity (a.u.)
ATAGTTAGGCAAGTTTGACTTTTGGTGTAAATGTTTGGTTCGGAGTCACCTAGTGCAG	12700 fluorescence intensity (a.u.)
GAGGGTTATTACTTAGCACCGTTGACTACTACTTTAATCTCGGAGTCACCTAGTGCAG	10000 fluorescence intensity (a.u.)
GCAACTCTTATATCTATTTCTGTTATTACAATGGAATTCCCGGAGTCACCTAGTGCAG	9300 fluorescence intensity (a.u.)
CCGCCACATGCTGCTGCCGCCCCAGCCGTCGGCTGCTTCTCGGAGTCACCTAGTGCAG	8560 fluorescence intensity (a.u.)
GCACGTGACGACCAGCTCCCTTCGATCACCTTGCTCCCAACGGAGTCACCTAGTGCAG	8180 fluorescence intensity (a.u.)
ACCACCTTAAAATGGCCCACACTACTTCCGTGTAAATTCACGGAGTCACCTAGTGCAG	8900 fluorescence intensity (a.u.)
CTCCATCGATCGCGTCCTCCTTACATTACTCCGCCCGCTGCGGAGTCACCTAGTGCAG	14200 fluorescence intensity (a.u.)
CCGCTGCTCTTATTTCTTCTTTCTTATCTTCTTAAAATATCGGAGTCACCTAGTGCAG	9520 fluorescence intensity (a.u.)
GCAGTTTCATAATGTTCGTTGCCAACGATCCGAGGTTGTACGGAGTCACCTAGTGCAG	8440 fluorescence intensity (a.u.)
CACTCGCCGGCACGTCGCCATCCAGATCGCACGCATTGACCGGAGTCACCTAGTGCAG	9300 fluorescence intensity (a.u.)
AGGAAAACCAAACCTGCACCACACACGCCGCGGCTCTCGTCGGAGTCACCTAGTGCAG	11500 fluorescence intensity (a.u.)
CCGCCGTTGACTTTTTGTCTAACGTTTGACCATTCGTCTTCGGAGTCACCTAGTGCAG	36200 fluorescence intensity (a.u.)
TCTTATCTGCATCCAACTGTACTCCAGCATGATCCACAACCGGAGTCACCTAGTGCAG	9300 fluorescence intensity (a.u.)
GTGGTGGCGGTGGTGGTGGCGCCATGGACAAACGGACGGACGGAGTCACCTAGTGCAG	8400 fluorescence intensity (a.u.)
AGCTTCCCTCCTAGTTTCCTTGCACCATCGGCTTTGCCTCCGGAGTCACCTAGTGCAG	8360 fluorescence intensity (a.u.)

Sequence	binding signal
CAAAACAGAAGAGCCAGGTTAGTTTAGTTGGTCATATTCACGGAGTCACCTAGTGCAG	8310 fluorescence intensity (a.u.)
CGCCGCTTAGCCCCGCTCGCCGCCGTCCGTTGCTACTCCGCGGAGTCACCTAGTGCAG	10600 fluorescence intensity (a.u.)
TTCCTTTGTTTAGTTGTTTGTTTTACATTCCACTCTACTACGGAGTCACCTAGTGCAG	9220 fluorescence intensity (a.u.)
AGTTCAACTTTAACCGTTTGTCTTATTTATTTTTTTTGAACGGAGTCACCTAGTGCAG	9090 fluorescence intensity (a.u.)
CGCCCAATTCCCCACTCCGATTCCTCTTCTTTCGCCCAAACGGAGTCACCTAGTGCAG	10400 fluorescence intensity (a.u.)
TCGCCGCCGCAACGCCTTCCAAAATCAAACCCTAGCCTAGCGGAGTCACCTAGTGCAG	8570 fluorescence intensity (a.u.)
AAGTCAAACATTTGGCGCCAAATTGAAAATCCCTTTCTACCGGAGTCACCTAGTGCAG	8080 fluorescence intensity (a.u.)
TGCTACTTCGCTTGCAGCGTGCGTGTCGGCTAGACCGTCCCGGAGTCACCTAGTGCAG	8060 fluorescence intensity (a.u.)
GAGGGCAAGGGCGGCGGGTCTAACACAACACAATAAGAGTCGGAGTCACCTAGTGCAG	9470 fluorescence intensity (a.u.)
CACGCCACTTCTCAAAACTTGCATGCATGCTACTGTGCCTCGGAGTCACCTAGTGCAG	8050 fluorescence intensity (a.u.)
GCCAGCCGGATCAGATCCAACACCTACCAACCTACCTTGGCGGAGTCACCTAGTGCAG	9840 fluorescence intensity (a.u.)
AGCACCACCACCACCACCACCACCGCCATAGCTAGCCGCTCGGAGTCACCTAGTGCAG	10700 fluorescence intensity (a.u.)
AAGGTTGTGGTTAGTGTTTCTTGATTACTGAAAATGGATACGGAGTCACCTAGTGCAG	10600 fluorescence intensity (a.u.)
TCCCATTTCTCTCGCGACAATTAGCGCTGCAACCTCTGAACGGAGTCACCTAGTGCAG	9560 fluorescence intensity (a.u.)
GTCATGCATAACGTATTACCTTTTCTCTTCCTTTTCCCTACGGAGTCACCTAGTGCAG	9250 fluorescence intensity (a.u.)
GTATTTTCGGTCAAACAATCCACGCTCCACTCAAATCAACCGGAGTCACCTAGTGCAG	8510 fluorescence intensity (a.u.)
TCATGGGGATTGGGGAGGCCAGGTGGAAGGAAGATTCCGGCGGAGTCACCTAGTGCAG	9350 fluorescence intensity (a.u.)
CCCGCATTCACTGTAGCTAGACCAATTCTAGACTTTCCAGCGGAGTCACCTAGTGCAG	10300 fluorescence intensity (a.u.)
CACCCAAGCCAAGCCCACGACCCGCACCGCAACACGCACACGGAGTCACCTAGTGCAG	8520 fluorescence intensity (a.u.)
CATTTCAATGTTTGCCAATTGACTTTATTTTTCTTTTGGTCGGAGTCACCTAGTGCAG	9230 fluorescence intensity (a.u.)
GTCATCGCCCAGCGCCGCGGCGACTCCAGCAAATTCGCGACGGAGTCACCTAGTGCAG	8090 fluorescence intensity (a.u.)

Part of the list above, field by field.
CAAAACAGAAGAGCCAGGTTAGTTTAGTTGGTCATATTCACGGAGTCACCTAGTGCAG
  binding signal = 8310 fluorescence intensity (a.u.)
CGCCGCTTAGCCCCGCTCGCCGCCGTCCGTTGCTACTCCGCGGAGTCACCTAGTGCAG
  binding signal = 10600 fluorescence intensity (a.u.)
CGCCCAATTCCCCACTCCGATTCCTCTTCTTTCGCCCAAACGGAGTCACCTAGTGCAG
  binding signal = 10400 fluorescence intensity (a.u.)
GTCATGCATAACGTATTACCTTTTCTCTTCCTTTTCCCTACGGAGTCACCTAGTGCAG
  binding signal = 9250 fluorescence intensity (a.u.)

(continued)

Sequence	binding signal
TTACTAGTCTACTGCTGCTGCTCTTGCTCTGAACTTTTTTCGGAGTCACCTAGTGCAG	8080 fluorescence intensity (a.u.)
TCGGACGGACGCTTTCCATTTCCGAACTGTTTTCATCCATCGGAGTCACCTAGTGCAG	8240 fluorescence intensity (a.u.)
TCCTCTCGCCATCGAGTCCGACACGTCCACATCGCCATTACGGAGTCACCTAGTGCAG	8240 fluorescence intensity (a.u.)
TTTGATCACATCTTACACTGCCGGGTGGGGTCAGCATCTGCGGAGTCACCTAGTGCAG	8070 fluorescence intensity (a.u.)
GGTGCCGTTGGAACCCACAGCCACTGGCCAGTCATTTACACGGAGTCACCTAGTGCAG	8030 fluorescence intensity (a.u.)
TCTCTCGCAAGTGTTGTTATTCCTTTCTCTCCCGCCAATACGGAGTCACCTAGTGCAG	10200 fluorescence intensity (a.u.)
GATGTGACGTGATGTGATGGAAAGTTGGGAGTTGGGGAAACGGAGTCACCTAGTGCAG	8560 fluorescence intensity (a.u.)
TCCTCTCCTCTCGAGCTCACCTATTATTGGTCCATTCTAGCGGAGTCACCTAGTGCAG	8490 fluorescence intensity (a.u.)
GCTCATCGTCACCATTTTTCACAGGGTGTAGGGGCGTCTCCGGAGTCACCTAGTGCAG	11300 fluorescence intensity (a.u.)
TGTCGCAATCTTTTGTGAATTGGTGGTGTGTTTTGTCAGTCGGAGTCACCTAGTGCAG	8610 fluorescence intensity (a.u.)
TTTCTTAGCTATGTCCTAATTTATTACTGTGCATGTTTCTCGGAGTCACCTAGTGCAG	10900 fluorescence intensity (a.u.)
GCCACCCCTGCTCCGTGCCTTTGCATACACATGGTCATCTCGGAGTCACCTAGTGCAG	8340 fluorescence intensity (a.u.)
CCCAGGTCCGCTGCTTCTACTTCTACATCTGTTTTATCTTCGGAGTCACCTAGTGCAG	10300 fluorescence intensity (a.u.)
GTCGATTTTTAATTTTGTTCGCTTTTGGAAATACATATCCCGGAGTCACCTAGTGCAG	11200 fluorescence intensity (a.u.)
ATATCTTGTCCCTGGCCTCGGCTTTGTTCAAGTACAGAACCGGAGTCACCTAGTGCAG	8310 fluorescence intensity (a.u.)
TAGTTCATTTGCATGCTTATTTCCGCCACAGTGTGGCGATCGGAGTCACCTAGTGCAG	13200 fluorescence intensity (a.u.)
CAGAGAAAGTATATATTTGTTTGGTTGAACTTCACACTTTCGGAGTCACCTAGTGCAG	8110 fluorescence intensity (a.u.)
TGTCGGTATCACCCGTATCACATCACAATACGTCAATATCCGGAGTCACCTAGTGCAG	9310 fluorescence intensity (a.u.)
GCATGCTCACCTTGATATGTCTCGTAGATTTTTTCAGCTTCGGAGTCACCTAGTGCAG	9090 fluorescence intensity (a.u.)
CTCGCCGCCTCCAGCCAATCCACCGCCGCCACCTTGCCGCCGGAGTCACCTAGTGCAG	8270 fluorescence intensity (a.u.)
CTTTGTTTTTTCGTTTTTACCTCTTTGAGTAGGACTTTTTCGGAGTCACCTAGTGCAG	12800 fluorescence intensity (a.u.)
